Results from patent US11666608B2 (priority 2020, dated 2023).
At least one compound was matched to its structure with a doubt left.

Assays:
NLRP3 = NLRP3 expression in lung tissue of LPS/OVA mouse model (western blotting); type: in vivo; conditions: FIG. 17
eNOS signaling = eNOS signaling activity in A549 cells treated with E. coli EVs (western blotting); type: cell-based; conditions: method of Example 3, FIG. 18A
t-bet = t-bet expression in lung tissue of LPS/OVA mouse model (western blotting); type: in vivo; conditions: FIG. 17
ROR-γt = ROR-γt expression in lung tissue of LPS/OVA mouse model (western blotting); type: in vivo; conditions: FIG. 17

Compound: C[C@@H]1C[C@H]2[C@@H]3CCC4=CC(=O)C=C[C@]4(C)[C@@]3(F)[C@@H](O)C[C@]2(C)[C@@]1(O)C(=O)CO [dexamethasone]
- expression of NLRP3 in lung tissue (NLRP3): significantly inhibited
- ERK phosphorylation (eNOS signaling): increased
- eNOS phosphorylation (eNOS signaling): increased
- expression of t-bet in lung tissue (t-bet): significantly inhibited
- expression of ROR-γt in lung tissue (ROR-γt): significantly inhibited
